Data reported in patent publication US20120010092A1.
These are yes or no findings as the source states them, for the method shown. Some results given as binding are weak or reduced against the parent protein; the word gives no strength.

By UniProt entry, the sequences of proteins in these tests, tags left out. Where a name states a change or a piece, a line headed by the entry shows the natural chain unless it says otherwise. Chains listed by the source or under a name are the forms on record and can include a tag or linker. Residues count along the entry.
UniProt P61604, residues 2-102: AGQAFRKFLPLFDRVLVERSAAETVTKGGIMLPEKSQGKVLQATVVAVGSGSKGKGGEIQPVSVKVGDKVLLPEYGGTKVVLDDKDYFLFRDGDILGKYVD
UniProt P10809, residues 27-573: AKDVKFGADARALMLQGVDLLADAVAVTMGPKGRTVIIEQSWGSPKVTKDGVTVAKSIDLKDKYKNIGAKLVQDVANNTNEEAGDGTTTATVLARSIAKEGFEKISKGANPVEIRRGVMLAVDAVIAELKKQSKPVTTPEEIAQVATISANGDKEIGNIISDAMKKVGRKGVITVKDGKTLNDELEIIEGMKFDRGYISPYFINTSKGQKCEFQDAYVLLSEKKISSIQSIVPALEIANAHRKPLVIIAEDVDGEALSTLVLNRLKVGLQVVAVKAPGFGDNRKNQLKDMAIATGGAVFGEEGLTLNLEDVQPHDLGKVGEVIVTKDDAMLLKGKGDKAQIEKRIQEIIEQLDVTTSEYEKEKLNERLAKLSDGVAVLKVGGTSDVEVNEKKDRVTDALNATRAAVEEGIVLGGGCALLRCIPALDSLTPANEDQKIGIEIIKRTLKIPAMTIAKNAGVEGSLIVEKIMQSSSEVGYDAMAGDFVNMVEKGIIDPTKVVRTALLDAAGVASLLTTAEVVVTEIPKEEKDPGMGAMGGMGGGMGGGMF
Fhit-His6 (recombinant fragile histidine triad protein with C-terminal His6 epitope tag, expressed from AdFHIT-His6) (P49789, form named): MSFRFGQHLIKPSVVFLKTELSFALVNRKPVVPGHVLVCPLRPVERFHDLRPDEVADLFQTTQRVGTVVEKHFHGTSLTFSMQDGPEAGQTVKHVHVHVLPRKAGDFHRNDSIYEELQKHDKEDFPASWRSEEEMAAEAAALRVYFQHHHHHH

How the values were obtained:
[1] = molecular target: T1, Ferredoxin reductase (Fdxr) (human) (UniProt P22570); test: Fhit-His6 complex purification after cross-linking
T1 sequence (looked up): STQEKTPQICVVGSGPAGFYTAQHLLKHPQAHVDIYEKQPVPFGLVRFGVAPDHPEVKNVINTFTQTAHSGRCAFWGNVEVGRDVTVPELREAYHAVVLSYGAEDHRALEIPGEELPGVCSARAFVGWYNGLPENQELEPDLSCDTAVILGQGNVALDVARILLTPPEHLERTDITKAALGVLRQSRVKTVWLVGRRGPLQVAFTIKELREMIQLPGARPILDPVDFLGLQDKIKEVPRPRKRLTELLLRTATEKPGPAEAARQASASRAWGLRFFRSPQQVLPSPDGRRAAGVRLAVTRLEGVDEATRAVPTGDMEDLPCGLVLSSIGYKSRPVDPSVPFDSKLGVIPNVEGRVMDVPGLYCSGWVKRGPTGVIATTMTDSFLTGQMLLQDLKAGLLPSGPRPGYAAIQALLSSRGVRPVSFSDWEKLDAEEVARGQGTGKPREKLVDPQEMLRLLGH

[2] = molecular target: Hsp10 (10-kDa heat shock protein) (human) (UniProt P61604); test: Fhit-His6 complex purification after cross-linking
[3] = molecular target: Hsp60 (60-kDa heat shock protein) (human) (UniProt P10809); test: Fhit-His6 complex purification after cross-linking
[4] = molecular target: T1, Ferredoxin reductase (Fdxr) (human); test: DSP cross-linking in A549 cells, nickel-bead pull-down of Fhit-His6, LC-MS/MS
[5] = molecular target: Hsp10 (10-kDa heat shock protein) (human) (UniProt P61604); test: as above
[6] = molecular target: Hsp60 (60-kDa heat shock protein) (human) (UniProt P10809); test: as above
[7] = molecular target: T1, Ferredoxin reductase (Fdxr) (human); test: comparison of selected ion chromatograms, Ad FHIT-His6 sample against control
[8] = molecular target: Hsp10 (10-kDa heat shock protein) (human) (UniProt P61604); test: as above
[9] = molecular target: Hsp60 (60-kDa heat shock protein) (human) (UniProt P10809); test: as above
[10] = molecular target: T1, Ferredoxin reductase (Fdxr) (human); test: time course of Fhit-His6 pull-down after infection of A549 cells, immunoblot (FIG. 2C)
[11] = molecular target: T1, Ferredoxin reductase (Fdxr) (human); test: DSP cross-linking in A549 cells, nickel-bead pull-down of Fhit-His6, LC-MS/MS (Table 1)
[12] = molecular target: Hsp10 (10-kDa heat shock protein) (human) (UniProt P61604); test: as above
[13] = molecular target: Hsp60 (60-kDa heat shock protein) (human) (UniProt P10809); test: as above
[14] = molecular target: Hsp10 (10-kDa heat shock protein) (human) (UniProt P61604); test: Fhit-His6 pull-down from A549 cells with or without DSP, immunoblot with anti-Hsp10 (FIG. 2B)
[15] = molecular target: Hsp60 (60-kDa heat shock protein) (human) (UniProt P10809); test: Fhit-His6 pull-down from A549 cells with or without DSP, immunoblot with anti-Hsp60 (FIG. 2A)
[16] = molecular target: Hsp10 (10-kDa heat shock protein) (human) (UniProt P61604); test: selected ion chromatograms, LC-MS/MS of Fhit-His6 pull-down against control; peptide … of Hsp10
[17] = molecular target: T1, Ferredoxin reductase (Fdxr) (human); test: selected ion chromatograms, LC-MS/MS of Fhit-His6 pull-down against control; peptide [..] of Fdxr
[18] = molecular target: Hsp60 (60-kDa heat shock protein) (human) (UniProt P10809); test: selected ion chromatograms, LC-MS/MS of Fhit-His6 pull-down against control; peptide [..] of Hsp60
[19] = molecular target: T1, Ferredoxin reductase (Fdxr) (human); test: Fhit-His6 pull-down after mitochondria isolation from A549 cells, immunoblot with anti-Fdxr (FIG. 2C)
[20] = molecular target: Hsp60 (60-kDa heat shock protein) (human) (UniProt P10809); test: nickel pull-down of DSP cross-linked Fhit-His6 from cytosol and mitochondria of A549 cells, immunoblot (FIG. 3A)
[21] = molecular target: Hsp60 (60-kDa heat shock protein) (human) (UniProt P10809); test: His6-tag purification from A549 cells infected with AdFHIT-His6 m.o.i. 20, with or without DSP, immunoblot (FIG. 2A)
[22] = molecular target: Hsp10 (10-kDa heat shock protein) (human) (UniProt P61604); test: His6-tag purification from A549 cells infected with AdFHIT-His6 m.o.i. 20, with or without DSP, immunoblot (FIG. 2B)
[23] = molecular target: T1, Ferredoxin reductase (Fdxr) (human); test: His6-tag purification from A549 cells infected with AdFHIT-His6 m.o.i. 20, with or without DSP, immunoblot (FIG. 2C)
[24] = molecular target: Hsp60 (60-kDa heat shock protein) (human) (UniProt P10809); test: Fhit-H6 nickel pull-down from cytosol and mitochondrial fractions of A549 cells (AdFHIT-His6 m.o.i. 5) after cross-linking, immunoblot (FIG. 3A)

Measured: binding

Fhit-His6 (recombinant fragile histidine triad protein with C-terminal His6 epitope tag, expressed from AdFHIT-His6) (from UniProt P49789 1-147)
binds: all assays above
